Measured values: the supplement of paper PMC3334620
Over roughly 33,000 sequences, “E-score (-0.5 to 0.5)” has its median near -0.0014; the highest 2% begin near 0.25. Some of the results follow.

target: T1, Cad1 (UniProt P24813); assay: PBM E-score (8-mer binding enrichment) (E-score (-0.5 to 0.5)); higher = stronger / more preferred TF binding; details: protein concentration: 100 nM; construct: GST-full length
T1 sequence: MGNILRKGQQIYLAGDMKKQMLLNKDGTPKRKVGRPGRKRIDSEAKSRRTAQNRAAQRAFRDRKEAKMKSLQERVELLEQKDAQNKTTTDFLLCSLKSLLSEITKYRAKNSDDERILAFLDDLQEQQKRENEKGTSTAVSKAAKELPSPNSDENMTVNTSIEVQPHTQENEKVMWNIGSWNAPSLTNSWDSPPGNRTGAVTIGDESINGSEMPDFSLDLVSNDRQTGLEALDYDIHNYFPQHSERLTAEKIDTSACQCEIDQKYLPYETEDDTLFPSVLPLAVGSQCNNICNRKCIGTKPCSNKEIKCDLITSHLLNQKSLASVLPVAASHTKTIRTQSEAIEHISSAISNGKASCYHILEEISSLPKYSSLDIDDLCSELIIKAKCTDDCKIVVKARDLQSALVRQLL
How it was run: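 For each ungapped eight-base word taken together with its reverse complement, the Universal PBM Analysis Suite assigned an E-score. Binding data came from GST-tagged yeast transcription factors, applied at about 100-200 nM, on universal all-10-mer Agilent arrays made double-stranded by primer extension. Fluorescent anti-GST marked bound protein, and scans were normalised with masliner.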

Question: Which “PBM E-score” value does the source give for TCCAAGAA here?
Answer: -0.0134

Question: CACCCAGG was tested. Which “PBM E-score” value did it give?
Answer: -0.285

Question: Which “PBM E-score” value does the source give for ATTAGGTC here?
Answer: 0.186

Question: With AGCACTTA as the sequence, how does the “PBM E-score” value read?
Answer: -0.0215

Question: For CTACGTTA, which “PBM E-score” value is on record?
Answer: -0.0861

Question: With TAGTACTA as the sequence, how does the “PBM E-score” value read?
Answer: -0.0169

Question: Which “PBM E-score” value does the source give for GTTGTTCA here?
Answer: 0.0319

Question: How did the “PBM E-score” value turn out when ACCGCCGG was run?
Answer: -0.176

Question: GAATTAAA was tested. Which “PBM E-score” value did it give?
Answer: -0.0332

Question: AGCATGCT was tested. Which “PBM E-score” value did it give?
Answer: 0.0553

Question: Which “PBM E-score” value does the source give for CGACACAG here?
Answer: 0.0947

Question: Which “PBM E-score” value does the source give for CCCAACAA here?
Answer: -0.083

Question: ATTATTAG was tested. Which “PBM E-score” value did it give?
Answer: 0.136

Question: GGTCTCAA was tested. Which “PBM E-score” value did it give?
Answer: -0.0801

Question: How did the “PBM E-score” value turn out when GCCTGTGA was run?
Answer: -0.136

Question: With GTCGTCAC as the sequence, how does the “PBM E-score” value read?
Answer: -0.00336

Question: For ACGGTGAA, which “PBM E-score” value is on record?
Answer: 0.103

Question: CTAGATCC was tested. Which “PBM E-score” value did it give?
Answer: -0.0065

Question: CCTAAACC was tested. Which “PBM E-score” value did it give?
Answer: -0.00061

Question: For ACTACAGT, which “PBM E-score” value is on record?
Answer: 0.0593

Question: CAAGCCTG was tested. Which “PBM E-score” value did it give?
Answer: -0.117

Question: GCGTTCAC was tested. Which “PBM E-score” value did it give?
Answer: -0.0792

Question: ATGTTGCC was tested. Which “PBM E-score” value did it give?
Answer: -0.118

Question: GAGTCTGA was tested. Which “PBM E-score” value did it give?
Answer: -0.0632

Question: With CATAGACA as the sequence, how does the “PBM E-score” value read?
Answer: 0.032

Question: For ATTTGTAC, which “PBM E-score” value is on record?
Answer: 0.119

Question: Which “PBM E-score” value does the source give for TCATGTAA here?
Answer: 0.171

Question: Which “PBM E-score” value does the source give for AAATGCGT here?
Answer: 0.105

Question: With AGCGGCCC as the sequence, how does the “PBM E-score” value read?
Answer: -0.3

Question: With GAAACCTA as the sequence, how does the “PBM E-score” value read?
Answer: -0.116

Question: Which “PBM E-score” value does the source give for AAGATTAA here?
Answer: 0.153

Question: How did the “PBM E-score” value turn out when GACCCTTA was run?
Answer: -0.0789

Question: Which “PBM E-score” value does the source give for CATTCCTC here?
Answer: -0.245

Question: How did the “PBM E-score” value turn out when ATGCTTAA was run?
Answer: 0.0324

Question: Which “PBM E-score” value does the source give for CATCACGC here?
Answer: -0.0512

Question: For AAGCTACA, which “PBM E-score” value is on record?
Answer: 0.0773

Question: For TCCCGCCA, which “PBM E-score” value is on record?
Answer: -0.0694

Question: For GGCTTATA, which “PBM E-score” value is on record?
Answer: -0.029

Question: How did the “PBM E-score” value turn out when ACCGAGTA was run?
Answer: 0.102

Question: How did the “PBM E-score” value turn out when TATTGCGA was run?
Answer: 0.038

Question: With CTGGTATA as the sequence, how does the “PBM E-score” value read?
Answer: -0.234

Question: How did the “PBM E-score” value turn out when ATATATTG was run?
Answer: -0.0927

Question: How did the “PBM E-score” value turn out when GAGCTGAA was run?
Answer: 0.00328

Question: For ATTGGGCG, which “PBM E-score” value is on record?
Answer: -0.00174

Question: Which “PBM E-score” value does the source give for AATCACGC here?
Answer: 0.0879

Question: CTATTTAC was tested. Which “PBM E-score” value did it give?
Answer: 0.0673

Question: For GCGAGTGA, which “PBM E-score” value is on record?
Answer: 0.0547

Question: With AACATCAA as the sequence, how does the “PBM E-score” value read?
Answer: 0.0836

Question: ACTAAGAT was tested. Which “PBM E-score” value did it give?
Answer: 0.214

Question: With TGGTAAAA as the sequence, how does the “PBM E-score” value read?
Answer: 0.18

Question: With CGTAGGTC as the sequence, how does the “PBM E-score” value read?
Answer: -0.162

Question: Which “PBM E-score” value does the source give for CGTCTCAC here?
Answer: -0.00352

Question: Which “PBM E-score” value does the source give for AATGCAAG here?
Answer: 0.0846

Question: CAATCCGC was tested. Which “PBM E-score” value did it give?
Answer: 0.076

Question: How did the “PBM E-score” value turn out when CGAGAGAC was run?
Answer: -0.122

Question: How did the “PBM E-score” value turn out when ATACCTAT was run?
Answer: 0.0797

Question: Which “PBM E-score” value does the source give for ATAGAGGG here?
Answer: -0.0413

Question: For ACTTCTCC, which “PBM E-score” value is on record?
Answer: -0.108

Question: With ATTAACAC as the sequence, how does the “PBM E-score” value read?
Answer: 0.275

Question: How did the “PBM E-score” value turn out when CTTTGGTA was run?
Answer: -0.155

Question: GCCCACCA was tested. Which “PBM E-score” value did it give?
Answer: -0.196

Question: CCCAAGCG was tested. Which “PBM E-score” value did it give?
Answer: -0.0171

Question: How did the “PBM E-score” value turn out when AACTTGTA was run?
Answer: 0.0473

Question: How did the “PBM E-score” value turn out when CTTAAAGA was run?
Answer: -0.0851

Question: Which “PBM E-score” value does the source give for CATAACAG here?
Answer: 0.172

Question: Which “PBM E-score” value does the source give for AGGAACGG here?
Answer: 0.0386

Question: AAGAACCC was tested. Which “PBM E-score” value did it give?
Answer: -0.102

Question: GAGTGTCA was tested. Which “PBM E-score” value did it give?
Answer: 0.153

Question: AGAGTGCA was tested. Which “PBM E-score” value did it give?
Answer: -0.209

Question: TAGACGAA was tested. Which “PBM E-score” value did it give?
Answer: -0.0971

Question: With GGAGTGTA as the sequence, how does the “PBM E-score” value read?
Answer: -0.241

Question: With ATTTACCC as the sequence, how does the “PBM E-score” value read?
Answer: -0.042

Question: How did the “PBM E-score” value turn out when ACCATAAA was run?
Answer: 0.0469

Question: How did the “PBM E-score” value turn out when CCCAATAC was run?
Answer: -0.0948

Question: Which “PBM E-score” value does the source give for ACAGGGAA here?
Answer: -0.109

Question: With AGCCCAGC as the sequence, how does the “PBM E-score” value read?
Answer: -0.128

Question: With AATTGTAA as the sequence, how does the “PBM E-score” value read?
Answer: 0.0822

Question: How did the “PBM E-score” value turn out when GGAGCTAC was run?
Answer: -0.253

Question: How did the “PBM E-score” value turn out when AGAGTCTG was run?
Answer: -0.158

Question: Which “PBM E-score” value does the source give for ACGCTCGC here?
Answer: 0.0494

Question: TAGCCAGA was tested. Which “PBM E-score” value did it give?
Answer: -0.154

Question: How did the “PBM E-score” value turn out when AGCTAATC was run?
Answer: 0.154

Question: Which “PBM E-score” value does the source give for GTCCACGA here?
Answer: -0.104

Question: TGTTACAA was tested. Which “PBM E-score” value did it give?
Answer: 0.17

Question: With GTACTCGA as the sequence, how does the “PBM E-score” value read?
Answer: -0.0287

Question: For CATATGAA, which “PBM E-score” value is on record?
Answer: 0.0736
